# Measured values published in the supplement of paper PMC8728848.
# The list shows a part of the results.
# Experiments:
# Assay in all cases: glycan array binding signal (z-score within array); higher = stronger binding
# Conditions in all cases: glycan notation: IUPAC condensed, linker removed
# [1] = target: Fuc(a1-2)Gal
# Procedure, shortened: (§1)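 Glycan array data were curated from 3228 arrays in the Consortium for Functional Glycomics database and kept only where the protein sequence was available. Glycan names were converted to IUPAC-condensed notation, and columns mapping to the same glycan were averaged. The binding signal is a within-array Z-score, averaged across arrays of the same protein sequence at different concentrations or buffers and across linkers. Negative Z-scores can be read as non-binding.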
# [2] = target: Fuc(a1-2)Gal(b1-3)GalNAc
# Procedure, shortened: as §1
# [3] = target: Fuc(a1-2)Gal(b1-3)GalNAc(b1-3)Gal
# Procedure, shortened: as §1
# [4] = target: Fuc(a1-2)Gal(b1-3)GalNAc(b1-3)Gal(a1-4)Gal(b1-4)Glc
# Procedure, shortened: as §1
# [5] = target: Fuc(a1-2)Gal(b1-3)GalNAc(b1-3)Gal(b1-4)Glc
# Procedure, shortened: as §1
# [6] = target: Fuc(a1-2)Gal(b1-3)GalNAc(b1-4)[Neu5Ac(a2-3)]Gal(b1-4)Glc
# Procedure, shortened: as §1
# [7] = target: Fuc(a1-2)Gal(b1-3)[Fuc(a1-4)]GlcNAc
# Procedure, shortened: as §1
# [8] = target: Fuc(a1-2)Gal(b1-4)Glc
# Procedure, shortened: as §1
# [9] = target: Fuc(a1-2)Gal(b1-4)Glc6S
# Procedure, shortened: as §1
# [10] = target: Fuc(a1-2)Gal(b1-4)GlcNAc
# Procedure, shortened: as §1
# [11] = target: Fuc(a1-2)Gal(b1-4)GlcNAc(b1-3)Gal(b1-4)GlcNAc
# Procedure, shortened: as §1
# [12] = target: Fuc(a1-2)Gal(b1-4)GlcNAc(b1-3)Gal(b1-4)GlcNAc(b1-3)Gal(b1-4)GlcNAc
# Procedure, shortened: as §1
# [13] = target: Fuc(a1-2)Gal(b1-4)GlcNAc6S
# Procedure, shortened: as §1
# [14] = target: Fuc(a1-2)Gal(b1-4)[Fuc(a1-3)]GalNAc(b1-3)Gal(b1-4)[Fuc(a1-3)]GlcNAc
# Procedure, shortened: as §1
# [15] = target: Fuc(a1-2)Gal(b1-4)[Fuc(a1-3)]GalNAc(b1-3)Gal(b1-4)[Fuc(a1-3)]GlcNAc(b1-3)Gal(b1-4)[Fuc(a1-3)]GalNAc
# Procedure, shortened: as §1
# [16] = target: Fuc(a1-2)Gal(b1-4)[Fuc(a1-3)]GlcNAc
# Procedure, shortened: as §1
# [17] = target: Fuc(a1-2)Gal6S(b1-4)Glc
# Procedure, shortened: as §1
# [18] = target: Fuc(a1-2)Gal6S(b1-4)Glc6S
# Procedure, shortened: as §1
# [19] = target: Fuc(a1-2)Gal6S(b1-4)GlcNAc
# Procedure, shortened: as §1
# [20] = target: Fuc(a1-2)GlcNAc
# Procedure, shortened: as §1
# [21] = target: Fuc(a1-2)[Gal(a1-3)]Gal
# Procedure, shortened: as §1
# [22] = target: Fuc(a1-2)[Gal(a1-3)]Gal(b1-3)GlcNAc
# Procedure, shortened: as §1
# [23] = target: Fuc(a1-2)[Gal(a1-3)]Gal(b1-4)Glc
# Procedure, shortened: as §1
# [24] = target: Fuc(a1-2)[Gal(a1-3)]Gal(b1-4)GlcNAc
# Procedure, shortened: as §1
# [25] = target: Fuc(a1-2)[Gal(a1-3)]Gal(b1-4)[Fuc(a1-3)]GlcNAc
# Procedure, shortened: as §1
# [26] = target: Fuc(a1-2)[Gal(a1-4)]Gal(b1-4)GalNAc
# Procedure, shortened: as §1
# [27] = target: Fuc(a1-2)[GalNAc(a1-3)]Gal
# Procedure, shortened: as §1
# [28] = target: Fuc(a1-2)[GalNAc(a1-3)]Gal(b1-3)GlcNAc
# Procedure, shortened: as §1
# [29] = target: Fuc(a1-2)[GalNAc(a1-3)]Gal(b1-4)Glc
# Procedure, shortened: as §1
# [30] = target: Fuc(a1-2)[GalNAc(a1-3)]Gal(b1-4)GlcNAc
# Procedure, shortened: as §1
binder,measurement,setting,value
"FBG2 (Homo sapiens), Q9NRD1 (protein) MDAPHSKAALDSINELPENILLELFTHVPARQLLLNCRLVCSLWRDLIDLMTLWKRKCLREGFITKDWDQPVADWKIFYFLRSLHRNLLRNPCAEEDMFAWQIDFNGGDRWKVESLPGAHGTDFPDPKVKKYFVTSYEMCLKSQLVDLVAEGYWEELLDTFRPDIVVKDWFAARADCGCTYQLKVQLASADYFVLASFEPPPVTIQQWNNATWTEVSYTFSDYPRGVRYILFQHGGRDTQYWAGWYGPRVTNSSIVVSPKMTRNQASSEAQPGQKHGQEEAAQSPYRAVVQIFPPPVTIQQWNNATWTEVSYTFSDYPRGVRYILFQHGGRDTQYWAGWYGPRVTNSSIVVSPKMTRNQASSEAQPGQKHGQEEAAQSPYRAVVQI",glycan array binding signal (z-score),[1],-0.76
same,glycan array binding signal (z-score),[2],-0.536
same,glycan array binding signal (z-score),[3],1.62
same,glycan array binding signal (z-score),[4],0.034
same,glycan array binding signal (z-score),[5],-0.267
same,glycan array binding signal (z-score),[6],0.264
same,glycan array binding signal (z-score),[7],-0.375
same,glycan array binding signal (z-score),[8],-0.605
same,glycan array binding signal (z-score),[9],-0.35
same,glycan array binding signal (z-score),[10],-0.43
same,glycan array binding signal (z-score),[11],0.089
same,glycan array binding signal (z-score),[12],-0.031
same,glycan array binding signal (z-score),[13],-0.718
same,glycan array binding signal (z-score),[14],0.384
same,glycan array binding signal (z-score),[15],-0.179
same,glycan array binding signal (z-score),[16],0.154
same,glycan array binding signal (z-score),[17],-0.533
same,glycan array binding signal (z-score),[18],0.595
same,glycan array binding signal (z-score),[19],-0.679
same,glycan array binding signal (z-score),[20],-0.369
same,glycan array binding signal (z-score),[21],-0.577
same,glycan array binding signal (z-score),[22],0.037
same,glycan array binding signal (z-score),[23],-0.566
same,glycan array binding signal (z-score),[24],-0.507
same,glycan array binding signal (z-score),[25],0.24
same,glycan array binding signal (z-score),[26],-0.858
same,glycan array binding signal (z-score),[27],-0.58
same,glycan array binding signal (z-score),[28],0.072
same,glycan array binding signal (z-score),[29],0.352
same,glycan array binding signal (z-score),[30],0.47

# A different layout for part of the listing above:
binder | measurement | setting | value
FBG2 (Homo sapiens), Q9NRD1 (protein) MDAPHSKAALDSINELPENILLELFTHVPARQLLLNCRLVCSLWRDLIDLMTLWKRKCLREGFITKDWDQPVADWKIFYFLRSLHRNLLRNPCAEEDMFAWQIDFNGGDRWKVESLPGAHGTDFPDPKVKKYFVTSYEMCLKSQLVDLVAEGYWEELLDTFRPDIVVKDWFAARADCGCTYQLKVQLASADYFVLASFEPPPVTIQQWNNATWTEVSYTFSDYPRGVRYILFQHGGRDTQYWAGWYGPRVTNSSIVVSPKMTRNQASSEAQPGQKHGQEEAAQSPYRAVVQIFPPPVTIQQWNNATWTEVSYTFSDYPRGVRYILFQHGGRDTQYWAGWYGPRVTNSSIVVSPKMTRNQASSEAQPGQKHGQEEAAQSPYRAVVQI | glycan array binding signal (z-score) | [15] | -0.179
same | glycan array binding signal (z-score) | [18] | 0.595
